Measured values: the supplement of paper PMC12823440, “Inhibitors supercharge kinase turnover through native proteolytic circuits” (Nature, 2025)
The list shows a part of the results. The calls rarely recur for the same compound in another form.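 Kinases, fused to nanoluciferase, were expressed in K562 cells; luminescence was measured every 4 h from 2 to 18 h as percent of control (DMSO = 100%, positive control = 0%). A time point is decreased if signal falls significantly (2 sigma). Hits were called by the authors by a rule that is not shown; the count of time points alone does not decide it.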

The chains behind the UniProt entries cited, without tags or fusion partners. Where a name states a change or a piece, a line headed by the entry shows the natural chain unless it says otherwise.
UniProt Q9UM73: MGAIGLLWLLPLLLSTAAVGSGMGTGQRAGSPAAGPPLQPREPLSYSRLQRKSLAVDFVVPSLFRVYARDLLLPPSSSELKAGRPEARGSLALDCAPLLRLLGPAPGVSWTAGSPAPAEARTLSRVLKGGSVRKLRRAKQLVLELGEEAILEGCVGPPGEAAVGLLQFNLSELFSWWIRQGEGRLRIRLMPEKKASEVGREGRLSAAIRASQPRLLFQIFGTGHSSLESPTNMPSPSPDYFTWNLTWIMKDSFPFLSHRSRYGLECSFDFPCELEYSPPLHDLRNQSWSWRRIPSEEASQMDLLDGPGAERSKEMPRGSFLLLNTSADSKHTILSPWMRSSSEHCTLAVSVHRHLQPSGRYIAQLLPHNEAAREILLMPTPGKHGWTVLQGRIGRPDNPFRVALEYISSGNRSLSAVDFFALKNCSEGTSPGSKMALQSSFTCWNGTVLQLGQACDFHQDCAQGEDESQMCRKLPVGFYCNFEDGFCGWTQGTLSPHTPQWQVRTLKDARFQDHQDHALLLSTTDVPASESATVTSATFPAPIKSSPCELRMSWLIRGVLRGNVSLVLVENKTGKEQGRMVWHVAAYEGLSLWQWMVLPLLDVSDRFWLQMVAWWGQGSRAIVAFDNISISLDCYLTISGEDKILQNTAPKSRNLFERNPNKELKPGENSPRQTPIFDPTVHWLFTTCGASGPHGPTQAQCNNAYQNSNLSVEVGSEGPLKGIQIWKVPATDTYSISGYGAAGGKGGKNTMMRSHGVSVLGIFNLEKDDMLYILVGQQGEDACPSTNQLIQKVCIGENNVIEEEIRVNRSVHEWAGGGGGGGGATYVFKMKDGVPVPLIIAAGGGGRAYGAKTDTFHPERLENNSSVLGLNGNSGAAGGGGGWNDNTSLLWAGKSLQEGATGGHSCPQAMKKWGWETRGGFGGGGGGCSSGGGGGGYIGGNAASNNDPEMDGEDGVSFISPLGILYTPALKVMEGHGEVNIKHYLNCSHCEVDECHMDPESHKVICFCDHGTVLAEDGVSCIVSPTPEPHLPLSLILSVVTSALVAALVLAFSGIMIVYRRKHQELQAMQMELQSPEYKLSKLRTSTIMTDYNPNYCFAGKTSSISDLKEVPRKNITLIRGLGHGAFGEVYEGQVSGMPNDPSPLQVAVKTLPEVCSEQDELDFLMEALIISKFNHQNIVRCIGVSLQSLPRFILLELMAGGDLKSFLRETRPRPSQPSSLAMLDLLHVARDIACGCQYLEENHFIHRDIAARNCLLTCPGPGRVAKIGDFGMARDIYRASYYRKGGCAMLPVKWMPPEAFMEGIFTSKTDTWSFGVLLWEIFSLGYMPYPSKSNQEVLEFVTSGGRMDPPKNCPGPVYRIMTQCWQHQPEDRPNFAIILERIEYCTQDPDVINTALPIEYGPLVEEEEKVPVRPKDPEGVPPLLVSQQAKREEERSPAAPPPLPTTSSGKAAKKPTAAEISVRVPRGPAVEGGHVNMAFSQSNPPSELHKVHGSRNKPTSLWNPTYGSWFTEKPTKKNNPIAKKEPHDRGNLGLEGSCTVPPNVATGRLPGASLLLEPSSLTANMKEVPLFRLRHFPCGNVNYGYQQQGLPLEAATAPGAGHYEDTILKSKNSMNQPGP
UniProt P10398: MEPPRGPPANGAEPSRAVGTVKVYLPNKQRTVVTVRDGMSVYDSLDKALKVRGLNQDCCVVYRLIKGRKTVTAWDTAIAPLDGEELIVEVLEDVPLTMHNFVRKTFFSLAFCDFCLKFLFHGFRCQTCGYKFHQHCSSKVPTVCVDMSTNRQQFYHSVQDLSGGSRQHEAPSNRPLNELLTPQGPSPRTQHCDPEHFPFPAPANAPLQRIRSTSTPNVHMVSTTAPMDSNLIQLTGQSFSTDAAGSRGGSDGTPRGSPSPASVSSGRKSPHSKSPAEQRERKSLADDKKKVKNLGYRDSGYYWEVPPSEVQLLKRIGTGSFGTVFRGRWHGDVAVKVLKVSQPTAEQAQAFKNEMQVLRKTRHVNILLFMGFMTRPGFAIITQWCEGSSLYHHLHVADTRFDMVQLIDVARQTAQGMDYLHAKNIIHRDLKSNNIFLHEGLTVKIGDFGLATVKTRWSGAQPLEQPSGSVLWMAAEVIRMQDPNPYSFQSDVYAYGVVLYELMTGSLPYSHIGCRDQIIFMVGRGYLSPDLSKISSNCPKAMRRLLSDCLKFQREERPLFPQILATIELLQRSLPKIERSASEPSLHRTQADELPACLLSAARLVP
UniProt O14965: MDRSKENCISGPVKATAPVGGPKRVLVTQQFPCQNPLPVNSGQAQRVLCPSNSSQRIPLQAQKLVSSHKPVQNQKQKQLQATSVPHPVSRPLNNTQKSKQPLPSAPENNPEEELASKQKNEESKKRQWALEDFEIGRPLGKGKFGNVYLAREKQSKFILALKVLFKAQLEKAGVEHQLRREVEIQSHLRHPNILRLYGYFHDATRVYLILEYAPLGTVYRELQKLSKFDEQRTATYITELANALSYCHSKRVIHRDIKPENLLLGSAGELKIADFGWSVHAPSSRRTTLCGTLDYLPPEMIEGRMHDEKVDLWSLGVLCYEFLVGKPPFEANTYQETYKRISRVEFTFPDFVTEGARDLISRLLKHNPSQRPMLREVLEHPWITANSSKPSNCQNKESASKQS
UniProt Q96GD4, whole entry: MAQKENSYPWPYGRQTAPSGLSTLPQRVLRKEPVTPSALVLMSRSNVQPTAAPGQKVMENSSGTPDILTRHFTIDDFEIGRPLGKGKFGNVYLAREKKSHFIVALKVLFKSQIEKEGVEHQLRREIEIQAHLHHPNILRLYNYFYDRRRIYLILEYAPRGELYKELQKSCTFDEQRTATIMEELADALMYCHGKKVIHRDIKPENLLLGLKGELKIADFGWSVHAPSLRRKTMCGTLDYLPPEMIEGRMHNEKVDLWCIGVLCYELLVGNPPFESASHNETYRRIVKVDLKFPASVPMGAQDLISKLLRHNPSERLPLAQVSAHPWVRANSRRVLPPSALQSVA
UniProt Q9UQB9: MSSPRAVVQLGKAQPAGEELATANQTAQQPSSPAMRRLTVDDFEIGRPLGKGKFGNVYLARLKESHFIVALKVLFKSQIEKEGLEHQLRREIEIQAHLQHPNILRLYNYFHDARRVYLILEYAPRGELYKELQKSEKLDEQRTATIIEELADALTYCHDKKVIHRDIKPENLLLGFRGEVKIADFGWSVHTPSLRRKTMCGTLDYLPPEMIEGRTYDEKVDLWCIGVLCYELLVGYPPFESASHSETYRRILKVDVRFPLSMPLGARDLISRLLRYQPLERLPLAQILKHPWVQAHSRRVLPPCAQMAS
UniProt P51451: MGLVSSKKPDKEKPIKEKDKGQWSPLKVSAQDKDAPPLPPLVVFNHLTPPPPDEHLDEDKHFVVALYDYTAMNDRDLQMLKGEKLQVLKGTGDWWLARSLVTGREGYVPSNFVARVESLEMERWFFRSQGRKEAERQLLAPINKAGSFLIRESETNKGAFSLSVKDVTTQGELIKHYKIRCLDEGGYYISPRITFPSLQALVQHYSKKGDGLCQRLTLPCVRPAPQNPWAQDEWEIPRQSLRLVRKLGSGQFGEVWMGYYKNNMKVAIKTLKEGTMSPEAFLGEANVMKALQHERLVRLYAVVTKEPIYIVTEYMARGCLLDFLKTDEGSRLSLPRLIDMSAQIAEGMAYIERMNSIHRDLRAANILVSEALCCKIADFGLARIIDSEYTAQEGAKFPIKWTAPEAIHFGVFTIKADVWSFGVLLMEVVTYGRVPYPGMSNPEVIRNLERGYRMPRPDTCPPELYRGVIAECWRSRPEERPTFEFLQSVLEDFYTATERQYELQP
UniProt P51813: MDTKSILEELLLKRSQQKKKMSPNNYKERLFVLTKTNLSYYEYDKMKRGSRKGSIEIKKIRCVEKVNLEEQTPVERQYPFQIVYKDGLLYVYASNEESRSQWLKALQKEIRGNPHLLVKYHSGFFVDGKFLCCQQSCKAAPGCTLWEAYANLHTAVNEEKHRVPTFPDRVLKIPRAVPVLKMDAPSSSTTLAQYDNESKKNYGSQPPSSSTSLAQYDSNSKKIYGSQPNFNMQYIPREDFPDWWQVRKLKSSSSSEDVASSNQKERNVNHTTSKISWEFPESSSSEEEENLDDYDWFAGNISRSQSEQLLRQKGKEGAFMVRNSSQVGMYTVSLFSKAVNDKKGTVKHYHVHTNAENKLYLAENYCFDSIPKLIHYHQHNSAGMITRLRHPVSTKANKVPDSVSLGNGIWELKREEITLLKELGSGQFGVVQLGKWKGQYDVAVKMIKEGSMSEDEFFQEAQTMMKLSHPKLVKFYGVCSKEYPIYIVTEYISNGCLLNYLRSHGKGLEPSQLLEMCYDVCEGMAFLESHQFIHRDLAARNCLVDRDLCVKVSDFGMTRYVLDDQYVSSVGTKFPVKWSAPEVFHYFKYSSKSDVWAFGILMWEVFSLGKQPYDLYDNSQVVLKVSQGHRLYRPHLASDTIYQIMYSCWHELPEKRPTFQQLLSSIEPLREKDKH
UniProt P15056, whole entry, looked up: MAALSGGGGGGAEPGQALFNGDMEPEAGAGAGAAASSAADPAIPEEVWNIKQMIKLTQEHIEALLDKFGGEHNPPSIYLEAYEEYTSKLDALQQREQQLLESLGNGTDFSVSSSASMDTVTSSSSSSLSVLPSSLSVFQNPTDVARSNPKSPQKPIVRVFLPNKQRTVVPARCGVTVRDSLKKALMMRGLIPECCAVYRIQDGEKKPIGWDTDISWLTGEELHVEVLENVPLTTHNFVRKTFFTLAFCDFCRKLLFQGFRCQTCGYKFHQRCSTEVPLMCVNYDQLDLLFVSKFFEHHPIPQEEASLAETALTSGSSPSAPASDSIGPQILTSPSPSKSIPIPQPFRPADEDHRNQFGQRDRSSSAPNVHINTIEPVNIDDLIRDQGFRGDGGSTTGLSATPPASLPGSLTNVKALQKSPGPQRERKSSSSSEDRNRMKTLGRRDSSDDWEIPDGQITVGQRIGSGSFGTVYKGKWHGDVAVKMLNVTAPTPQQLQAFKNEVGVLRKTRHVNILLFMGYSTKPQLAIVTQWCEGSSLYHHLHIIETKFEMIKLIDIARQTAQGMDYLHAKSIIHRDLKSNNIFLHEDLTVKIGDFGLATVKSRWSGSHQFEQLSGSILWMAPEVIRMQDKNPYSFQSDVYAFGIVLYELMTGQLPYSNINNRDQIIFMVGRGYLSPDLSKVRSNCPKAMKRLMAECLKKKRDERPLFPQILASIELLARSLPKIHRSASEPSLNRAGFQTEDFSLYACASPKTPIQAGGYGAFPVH
UniProt Q06187: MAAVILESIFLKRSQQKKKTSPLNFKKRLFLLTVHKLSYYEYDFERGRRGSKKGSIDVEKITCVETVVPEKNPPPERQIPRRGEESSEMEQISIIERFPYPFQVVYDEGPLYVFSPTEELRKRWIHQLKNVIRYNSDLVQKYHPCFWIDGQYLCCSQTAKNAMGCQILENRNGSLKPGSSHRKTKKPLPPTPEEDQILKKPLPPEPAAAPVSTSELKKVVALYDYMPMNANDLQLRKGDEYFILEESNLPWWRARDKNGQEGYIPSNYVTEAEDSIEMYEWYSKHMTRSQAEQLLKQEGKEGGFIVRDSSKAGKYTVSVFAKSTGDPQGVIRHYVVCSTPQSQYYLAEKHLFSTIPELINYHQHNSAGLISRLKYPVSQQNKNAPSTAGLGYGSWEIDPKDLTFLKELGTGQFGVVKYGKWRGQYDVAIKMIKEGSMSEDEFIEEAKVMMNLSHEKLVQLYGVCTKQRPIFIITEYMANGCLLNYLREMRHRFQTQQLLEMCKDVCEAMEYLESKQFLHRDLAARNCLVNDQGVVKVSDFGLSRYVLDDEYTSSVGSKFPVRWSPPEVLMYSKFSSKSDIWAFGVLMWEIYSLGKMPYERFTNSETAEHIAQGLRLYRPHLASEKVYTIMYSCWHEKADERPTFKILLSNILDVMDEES

How the values were obtained:
Assay in all cases: number of time points (of 5) at which kinase-Nluc abundance scored as decreased, DMSO-normalised (count); higher = more persistent destabilization
Details in all cases: K562; 2-18 h
ALK = ALK (UniProt Q9UM73)
ARAF = ARAF (UniProt P10398)
AURKA = AURKA (UniProt O14965)
AURKB = AURKB (UniProt Q96GD4)
AURKC = AURKC (UniProt Q9UQB9)
BLK = BLK (UniProt P51451)
BMX = BMX (UniProt P51813)
BRAF = BRAF (UniProt P15056)
BRAF_V600E = system: BRAF_V600E
BTK = BTK (UniProt Q06187)

Row | Structure (SMILES) | number of time points (ALK) | number of time points (ARAF) | number of time points (AURKA) | number of time points (AURKB) | number of time points (AURKC) | number of time points (BLK) | number of time points (BMX) | number of time points (BRAF) | number of time points (BRAF_V600E) | number of time points (BTK)
1 | COc1cc2nc(C)nc(N[C@H](C)c3cc(N)cc(C(F)(F)F)c3)c2cc1O[C@H]1CCOC1 (10 µM) | 0 | 0 | 0 | 0 | 0 | 0 | 0 | 0 | 0 | 0
2 | Cc1ncc(-c2ccnc(Nc3ccc(S(C)(=O)=O)cc3)n2)n1C(C)C (2.5 µM) | 0 | 0 | 3 | 0 | 0 | 0 | 3 | 0 | 1 | 0
3 | N#C/C(=C\c1ccc(O)c(O)c1)C(=O)NCCCc1ccccc1 (10 µM) | 0 | 0 | 0 | 0 | 0 | 0 | 0 | 0 | 0 | 0
4 | CC(C)n1cnc2c(NCc3cccc(C(F)(F)F)c3)ncnc21 [Longdaysin] (10 µM) | 0 | 0 | 0 | 0 | 0 | 0 | 0 | 0 | 0 | 0
5 | CCN(CCO)CCCOc1ccc2c(Nc3cc(CC(=O)Nc4cccc(F)c4)[nH]n3)ncnc2c1 [Barasertib-HQPA] (10 µM) | 0 | 0 | 0 | 0 | 0 | 0 | 0 | 0 | 0 | 0
6 | C=CC(=O)N1CCN(CCCn2c(=O)c(-c3c(Cl)c(OC)cc(OC)c3Cl)cc3cnc(NC)nc32)CC1 (10 µM) | 0 | 0 | 0 | 0 | 0 | 0 | 0 | 0 | 0 | 0
7 | O=C1Nc2ccccc2/C1=C/c1ccc(F)cc1 (10 µM) | 0 | 0 | 0 | 0 | 0 | 0 | 0 | 0 | 0 | 0
8 | CNc1nc(-c2ccc3c(N)n[nH]c3c2)cc(N2C[C@@H](C(=O)NC3CCCCC3)CC[C@H]2C)n1 (10 µM) | 0 | 0 | 0 | 0 | 0 | 0 | 0 | 0 | 0 | 0
9 | C=CC(=O)N[C@H]1COC[C@H]1Nc1ncc2cc(-c3c(Cl)c(OC)cc(OC)c3Cl)c(=O)n(C)c2n1 (10 µM) | 0 | 0 | 0 | 0 | 0 | 0 | 0 | 0 | 0 | 0
10 | CC(=O)NCC(=O)N1[C@@H]2CC[C@H]1c1ccc(Nc3ncc(C(F)(F)F)c(NC4CCC4)n3)cc12 (2.5 µM) | 1 | 0 | 4 | 3 | 0 | 3 | 4 | 0 | 3 | 0
11 | CCC(=O)N1CCN(c2ccc(-n3c(=O)ccc4cnc5ccc(-c6cnc7ccccc7c6)cc5c43)cc2C(F)(F)F)CC1 [Torin 1] (2 µM) | 1 | 0 | 1 | 4 | 0 | 2 | 4 | 0 | 1 | 0
12 | CCOc1cc2ncc(C#N)c(Nc3ccc(OCc4ccccn4)c(Cl)c3)c2cc1NC(=O)/C=C/CN(C)C [Neratinib] (10 µM) | 0 | 0 | 0 | 0 | 0 | 0 | 3 | 0 | 0 | 0
13 | Cc1c[nH]c2ccccc12 [Skatole] (10 µM) | 0 | 0 | 0 | 0 | 0 | 0 | 0 | 0 | 0 | 0
14 | O=C([O-])c1ccccc1O.[Na+] [Sodium Salicylate] (10 µM) | 0 | 0 | 0 | 0 | 0 | 0 | 0 | 0 | 0 | 0
15 | COc1cc2ncnc(Nc3cccc(Cl)c3F)c2cc1OC(=O)N1CCN(C)C[C@H]1C [Zorifertinib] (10 µM) | 0 | 0 | 0 | 0 | 0 | 0 | 0 | 0 | 0 | 0
16 | Nc1nc(OCC2CCCCC2)c2[nH]cnc2n1 (10 µM) | 0 | 0 | 0 | 0 | 0 | 0 | 0 | 0 | 0 | 0
17 | C[C@]1(O)C[C@@H](c2nc(-c3ccc4ccc(-c5ccccc5)nc4c3)c3c(N)nccn32)C1 [Linsitinib] (2.5 µM) | 0 | 0 | 0 | 0 | 0 | 0 | 0 | 0 | 0 | 0
18 | CN1CCN(C(=O)c2ccc(-c3ccc4c(C=O)c(O)ccc4c3)s2)CC1 (2.5 µM) | 0 | 0 | 0 | 0 | 0 | 0 | 0 | 0 | 0 | 0
19 | CCCCC[C@H](O)CC(=O)CCc1ccc(O)c(OC)c1 [[6]-Gingerol] (10 µM) | 0 | 0 | 0 | 0 | 0 | 0 | 0 | 0 | 0 | 0

Only number of time points (ALK) (two entries from above):
Row | Structure (SMILES) | number of time points (ALK)
3 | N#C/C(=C\c1ccc(O)c(O)c1)C(=O)NCCCc1ccccc1 (10 µM) | 0
4 | CC(C)n1cnc2c(NCc3cccc(C(F)(F)F)c3)ncnc21 [Longdaysin] (10 µM) | 0

Next part:

Row | Structure (SMILES) | number of time points (ALK) | number of time points (ARAF) | number of time points (AURKA) | number of time points (AURKB) | number of time points (AURKC) | number of time points (BLK) | number of time points (BMX) | number of time points (BRAF) | number of time points (BRAF_V600E) | number of time points (BTK)
20 | CN1CCC(Nc2ncc3ncnc(Nc4ccc(F)c(Cl)c4)c3n2)CC1 [Falnidamol] (10 µM) | 0 | 0 | 0 | 0 | 0 | 0 | 0 | 0 | 0 | 0
21 | O=c1cc(N2CCOCC2)oc2c(-c3ccccc3)cccc12 (10 µM) | 0 | 0 | 0 | 0 | 0 | 0 | 0 | 0 | 0 | 0
22 | Cc1cccc(Cn2nc(C3CC3)c3c(NC(=O)c4cnc5cc(OCCN6CCN(C)CC6)ccn45)cccc32)n1 (10 µM) | 0 | 0 | 0 | 0 | 0 | 0 | 0 | 0 | 0 | 0
23 | Cc1c[nH]c(/C=C2\C(=O)Nc3ccccc32)c1CCC(=O)O (10 µM) | 0 | 0 | 0 | 0 | 0 | 0 | 0 | 0 | 0 | 0
24 | O=C1Cc2c([nH]c3ccc(Br)cc23)-c2ncccc2N1 [1-Azakenpaullone] (10 µM) | 0 | 0 | 0 | 0 | 0 | 0 | 0 | 0 | 0 | 0
25 | CCCS(=O)(=O)Nc1ccc(F)c(C(=O)c2c[nH]c3ncc(Cl)cc23)c1F (10 µM) | 0 | 0 | 0 | 0 | 0 | 0 | 0 | 0 | 0 | 0
26 | C[C@H](NC(=O)/C(C#N)=C/c1cccc(Br)n1)c1ccccc1 (2.5 µM) | 0 | 0 | 3 | 4 | 0 | 0 | 0 | 0 | 0 | 0
27 | FC(F)(F)c1ccc(CNc2ccc(Cc3c[nH]c4ncc(Cl)cc34)cn2)cc1 (10 µM) | 0 | 0 | 0 | 0 | 0 | 0 | 0 | 0 | 0 | 0
28 | COc1cc(OC)cc(N(CCNC(C)C)c2ccc3ncc(-c4cnn(C)c4)nc3c2)c1 [Erdafitinib] (2.5 µM) | 0 | 0 | 0 | 0 | 0 | 0 | 0 | 0 | 0 | 0
29 | COc1cc(OC)c(F)c(COc2cnc(Nc3cnn(CCO)c3)nc2)c1F (2.5 µM) | 1 | 0 | 0 | 0 | 0 | 0 | 2 | 1 | 0 | 0
30 | COc1ccc2c(C(=O)Nc3ccc(NC(=O)c4nn(C5CCN(C(=O)CC(C)(C)C#N)CC5)c5ccc(F)cc45)cc3Cl)cnn2c1 [Src Inhibitor 3] (2.5 µM) | 2 | 1 | 1 | 1 | 1 | 2 | 3 | 2 | 2 | 0
31 | COc1cc(C)c(Sc2cnc(NC(=O)c3ccc(CNC(C)C(C)(C)C)cc3)s2)cc1C(=O)N1CCN(C(C)=O)CC1 (stereo not given) (2.5 µM) | 0 | 0 | 0 | 0 | 0 | 0 | 0 | 0 | 0 | 0
32 | Cc1cc(C(=O)Nc2cccc(C(=O)Nc3cccc(C(F)(F)F)c3)c2)on1 (10 µM) | 0 | 0 | 0 | 0 | 0 | 0 | 0 | 0 | 0 | 0
33 | O=C1NC(=NCc2cccs2)S/C1=C\c1ccc2ncccc2c1 (10 µM) | 0 | 0 | 0 | 0 | 0 | 0 | 0 | 5 | 0 | 0
34 | CCN1CCN(Cc2ccc(C(=O)Nc3ccc(C)c(Oc4ccc5c(c4)CC(=O)N5)c3)cc2C(F)(F)F)CC1 (2.5 µM) | 2 | 0 | 1 | 2 | 0 | 0 | 3 | 1 | 3 | 0
35 | O=C(O)CCNC(=O)c1ccc(/N=N/c2ccc(O)c(C(=O)O)c2)cc1 [Balsalazide] (10 µM) | 0 | 0 | 0 | 0 | 0 | 0 | 0 | 0 | 0 | 0
36 | CC(C)(C)c1nc2c3cc[nH]c(=O)c3c3cc(F)ccc3c2[nH]1 [Pyridone 6] (10 µM) | 0 | 0 | 0 | 0 | 0 | 0 | 0 | 0 | 0 | 0
37 | CC(C)=CC/C=C(\C)[C@H]1CC[C@]2(C)[C@@H]1[C@H](O)C[C@@H]1[C@@]3(C)CC[C@H](O[C@@H]4O[C@H](CO)[C@@H](O)[C@H](O)[C@H]4O[C@@H]4O[C@H](CO)[C@@H](O)[C@H](O)[C@H]4O)C(C)(C)[C@@H]3CC[C@]12C [Ginsenoside Rg5] (10 µM) | 0 | 0 | 0 | 0 | 0 | 0 | 0 | 0 | 0 | 0
